Reference: PubChem BioAssay AID212 (DTP/NCI, 2004)
The list is a part of this screen's results and no random one: it gathers tests that were run many times, whatever their T/C, doses with no T/C, and many T/C values between a quarter and a half above the control. Other doses and runs of a compound stand elsewhere. T/C gives the treated animals as a percentage of the vehicle group. Schedules are NCI's codes, taken here to give the interval after Q, in days (D) or hours (H), and the number of doses after X. Some entries give survivors of the animals treated and no T/C: the source holds a T/C of zero for them, seemingly a mark for toxic or unscored doses. Survivors were counted at the toxicity check, usually on the fifth day, unless a day is given; later deaths do not show.

System: BDF1 mice, colon carcinoma 38 sc, T/C %
Assay: NCI In Vivo Anticancer Drug Screen. Data for tumor model Colon Carcinoma 38 (subcutaneous) in B6D2F1 (BDF1) mice
Settings: T/C endpoint: median tumor weight (est.), schedule: Q07DX002 (ip), higher T/C = larger tumour; for T/C: evaluated on day 20
How it was run: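 Compound antitumor activity was assessed in mice carrying transplantable tumors. Survival or tumor size was recorded, and each value is the treated-group measurement divided by that of the vehicle-treated control group.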

SMILES: O=C1C=CC(=O)N1c1ccc(Cl)cc1
- T/C (dose: 10.0 mg/kg/injection, vehicle: Klucel (hydroxypropylcellulose) (HPC)): 139 % of control
- survivor count (dose: 40.0 mg/kg/injection, vehicle: Klucel (hydroxypropylcellulose) (HPC)): 0 of 10 on day 20

SMILES: CN(C)c1ccc(C(=C2C=CC(=[N+](C)C)C=C2)c2ccc(N(C)C)cc2)cc1 (tested in a mixture with another compound)
- T/C (dose: 2.5 mg/kg/injection, vehicle: saline with Tween-80): 135 % of control
- survivor count (dose: 10.0 mg/kg/injection, vehicle: saline with Tween-80): 0 of 10 on day 20
- survivor count (dose: 20.0 mg/kg/injection, vehicle: saline with Tween-80): 0 of 10 on day 20
- survivor count (dose: 40.0 mg/kg/injection, vehicle: saline with Tween-80): 0 of 10 on day 20

SMILES: C=C1CC2(OC1=O)C(=O)N(C)c1ccc(I)cc12 (centres undefined)
- T/C (dose: 25.0 mg/kg/injection, vehicle: saline): 126 % of control
- survivor count (dose: 200.0 mg/kg/injection, vehicle: saline): 5 of 10 on day 20

SMILES: CC[C@H]1CN2CCc3cc(OC)c(OC)cc3[C@@H]2C[C@@H]1C[C@H]1NCCc2cc(OC)c(OC)cc21
- survivor count (dose: 56.0 mg/kg/injection, vehicle: saline): 2 of 10 on day 20
